Measurements published in the supplement of paper PMC10849652.
The other results are listed elsewhere or left out.

Sequences of proteins named here, by UniProt entry; tags and fusion partners are left off. A change or cut given only in a name is not applied to a line headed by its entry.
UniProt P29692: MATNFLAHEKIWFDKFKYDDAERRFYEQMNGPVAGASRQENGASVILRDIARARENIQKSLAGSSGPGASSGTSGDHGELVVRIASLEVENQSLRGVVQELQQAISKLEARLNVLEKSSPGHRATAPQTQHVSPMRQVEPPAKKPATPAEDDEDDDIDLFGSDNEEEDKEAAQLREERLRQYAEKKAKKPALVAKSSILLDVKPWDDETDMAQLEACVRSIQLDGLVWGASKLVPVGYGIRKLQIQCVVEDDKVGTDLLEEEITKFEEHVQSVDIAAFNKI
UniProt Q8N7B9: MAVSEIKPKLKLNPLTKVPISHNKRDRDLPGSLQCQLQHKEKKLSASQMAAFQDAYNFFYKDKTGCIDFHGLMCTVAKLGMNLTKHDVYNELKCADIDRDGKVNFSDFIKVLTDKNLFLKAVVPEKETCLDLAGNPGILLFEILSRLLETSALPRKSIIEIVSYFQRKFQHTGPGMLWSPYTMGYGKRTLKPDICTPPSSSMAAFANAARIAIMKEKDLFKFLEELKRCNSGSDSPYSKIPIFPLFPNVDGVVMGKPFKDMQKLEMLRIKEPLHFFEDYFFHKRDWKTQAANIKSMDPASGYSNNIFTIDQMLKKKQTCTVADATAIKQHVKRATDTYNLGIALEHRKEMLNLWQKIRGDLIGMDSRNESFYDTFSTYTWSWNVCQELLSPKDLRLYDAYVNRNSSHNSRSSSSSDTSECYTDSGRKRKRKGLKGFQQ
UniProt O14576, whole entry, looked up: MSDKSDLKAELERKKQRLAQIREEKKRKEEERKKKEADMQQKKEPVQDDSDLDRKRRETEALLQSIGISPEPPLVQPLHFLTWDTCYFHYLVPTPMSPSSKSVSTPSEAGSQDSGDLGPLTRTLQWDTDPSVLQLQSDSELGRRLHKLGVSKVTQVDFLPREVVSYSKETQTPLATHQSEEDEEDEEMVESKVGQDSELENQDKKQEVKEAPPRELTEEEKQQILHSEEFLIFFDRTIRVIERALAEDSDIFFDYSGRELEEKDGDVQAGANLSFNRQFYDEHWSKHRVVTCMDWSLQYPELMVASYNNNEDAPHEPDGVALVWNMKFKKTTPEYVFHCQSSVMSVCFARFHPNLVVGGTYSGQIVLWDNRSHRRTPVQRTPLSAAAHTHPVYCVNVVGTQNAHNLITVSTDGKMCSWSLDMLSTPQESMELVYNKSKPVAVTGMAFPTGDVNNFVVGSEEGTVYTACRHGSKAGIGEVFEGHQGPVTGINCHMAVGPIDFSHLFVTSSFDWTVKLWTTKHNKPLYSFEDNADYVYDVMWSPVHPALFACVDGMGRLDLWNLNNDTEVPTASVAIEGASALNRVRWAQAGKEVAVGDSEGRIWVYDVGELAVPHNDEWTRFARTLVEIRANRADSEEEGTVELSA
UniProt Q9NZJ0: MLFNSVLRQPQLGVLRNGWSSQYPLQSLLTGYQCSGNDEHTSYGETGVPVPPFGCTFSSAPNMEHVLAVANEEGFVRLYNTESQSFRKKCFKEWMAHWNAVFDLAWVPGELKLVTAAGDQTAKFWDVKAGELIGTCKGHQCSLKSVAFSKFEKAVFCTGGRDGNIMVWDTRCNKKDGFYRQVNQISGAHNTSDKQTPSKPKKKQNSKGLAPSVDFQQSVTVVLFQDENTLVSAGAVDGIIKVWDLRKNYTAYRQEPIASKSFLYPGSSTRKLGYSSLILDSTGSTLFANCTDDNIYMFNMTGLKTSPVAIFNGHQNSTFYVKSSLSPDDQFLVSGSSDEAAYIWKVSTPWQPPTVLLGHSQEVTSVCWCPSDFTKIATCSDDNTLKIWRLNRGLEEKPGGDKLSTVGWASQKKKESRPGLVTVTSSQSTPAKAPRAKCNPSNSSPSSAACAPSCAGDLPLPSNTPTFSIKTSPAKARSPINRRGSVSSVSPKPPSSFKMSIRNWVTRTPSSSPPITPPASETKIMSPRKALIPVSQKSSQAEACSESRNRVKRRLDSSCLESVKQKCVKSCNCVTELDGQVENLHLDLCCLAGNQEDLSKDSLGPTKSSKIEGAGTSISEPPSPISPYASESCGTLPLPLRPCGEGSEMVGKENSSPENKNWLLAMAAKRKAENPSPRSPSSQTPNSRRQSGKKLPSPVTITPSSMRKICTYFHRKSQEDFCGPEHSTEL
UniProt Q6XUX3: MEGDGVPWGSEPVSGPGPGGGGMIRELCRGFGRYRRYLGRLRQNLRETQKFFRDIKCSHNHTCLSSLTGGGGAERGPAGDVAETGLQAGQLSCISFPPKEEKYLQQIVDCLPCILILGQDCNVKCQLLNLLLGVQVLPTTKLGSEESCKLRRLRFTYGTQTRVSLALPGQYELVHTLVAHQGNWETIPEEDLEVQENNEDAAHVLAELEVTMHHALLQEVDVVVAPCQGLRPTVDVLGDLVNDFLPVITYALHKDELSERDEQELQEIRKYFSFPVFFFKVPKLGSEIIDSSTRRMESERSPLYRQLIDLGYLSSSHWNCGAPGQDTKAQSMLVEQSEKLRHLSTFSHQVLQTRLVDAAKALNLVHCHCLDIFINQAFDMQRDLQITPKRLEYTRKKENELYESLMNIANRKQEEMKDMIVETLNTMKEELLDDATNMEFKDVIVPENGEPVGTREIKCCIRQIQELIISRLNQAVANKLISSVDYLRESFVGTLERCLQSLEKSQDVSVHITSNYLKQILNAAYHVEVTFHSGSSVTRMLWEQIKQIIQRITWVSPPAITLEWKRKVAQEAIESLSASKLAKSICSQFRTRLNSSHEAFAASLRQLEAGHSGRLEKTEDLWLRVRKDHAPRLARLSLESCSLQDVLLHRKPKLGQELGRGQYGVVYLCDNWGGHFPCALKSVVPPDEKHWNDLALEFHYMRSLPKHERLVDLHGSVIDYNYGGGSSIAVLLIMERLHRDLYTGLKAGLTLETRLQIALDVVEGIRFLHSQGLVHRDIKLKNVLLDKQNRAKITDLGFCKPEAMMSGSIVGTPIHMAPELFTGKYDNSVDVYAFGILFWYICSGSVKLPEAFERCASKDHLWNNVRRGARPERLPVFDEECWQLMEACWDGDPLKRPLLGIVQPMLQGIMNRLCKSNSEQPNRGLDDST
UniProt Q86UW9: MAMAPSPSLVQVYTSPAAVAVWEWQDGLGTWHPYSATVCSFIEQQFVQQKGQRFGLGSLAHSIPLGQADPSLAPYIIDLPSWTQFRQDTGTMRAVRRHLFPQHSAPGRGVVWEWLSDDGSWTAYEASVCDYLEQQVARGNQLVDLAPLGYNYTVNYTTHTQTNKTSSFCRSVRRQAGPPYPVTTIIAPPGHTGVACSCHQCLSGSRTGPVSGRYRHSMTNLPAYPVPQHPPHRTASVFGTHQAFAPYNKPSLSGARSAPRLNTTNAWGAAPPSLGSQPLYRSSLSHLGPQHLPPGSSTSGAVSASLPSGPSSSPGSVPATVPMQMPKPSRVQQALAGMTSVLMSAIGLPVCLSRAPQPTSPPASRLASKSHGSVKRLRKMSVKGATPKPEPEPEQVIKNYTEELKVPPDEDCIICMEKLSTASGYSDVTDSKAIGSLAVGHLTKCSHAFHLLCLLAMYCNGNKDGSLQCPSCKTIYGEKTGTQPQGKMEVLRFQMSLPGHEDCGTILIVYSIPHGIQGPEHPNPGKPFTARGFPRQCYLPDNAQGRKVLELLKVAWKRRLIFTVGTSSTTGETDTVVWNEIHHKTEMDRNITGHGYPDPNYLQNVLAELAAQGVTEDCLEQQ
UniProt Q86Y13: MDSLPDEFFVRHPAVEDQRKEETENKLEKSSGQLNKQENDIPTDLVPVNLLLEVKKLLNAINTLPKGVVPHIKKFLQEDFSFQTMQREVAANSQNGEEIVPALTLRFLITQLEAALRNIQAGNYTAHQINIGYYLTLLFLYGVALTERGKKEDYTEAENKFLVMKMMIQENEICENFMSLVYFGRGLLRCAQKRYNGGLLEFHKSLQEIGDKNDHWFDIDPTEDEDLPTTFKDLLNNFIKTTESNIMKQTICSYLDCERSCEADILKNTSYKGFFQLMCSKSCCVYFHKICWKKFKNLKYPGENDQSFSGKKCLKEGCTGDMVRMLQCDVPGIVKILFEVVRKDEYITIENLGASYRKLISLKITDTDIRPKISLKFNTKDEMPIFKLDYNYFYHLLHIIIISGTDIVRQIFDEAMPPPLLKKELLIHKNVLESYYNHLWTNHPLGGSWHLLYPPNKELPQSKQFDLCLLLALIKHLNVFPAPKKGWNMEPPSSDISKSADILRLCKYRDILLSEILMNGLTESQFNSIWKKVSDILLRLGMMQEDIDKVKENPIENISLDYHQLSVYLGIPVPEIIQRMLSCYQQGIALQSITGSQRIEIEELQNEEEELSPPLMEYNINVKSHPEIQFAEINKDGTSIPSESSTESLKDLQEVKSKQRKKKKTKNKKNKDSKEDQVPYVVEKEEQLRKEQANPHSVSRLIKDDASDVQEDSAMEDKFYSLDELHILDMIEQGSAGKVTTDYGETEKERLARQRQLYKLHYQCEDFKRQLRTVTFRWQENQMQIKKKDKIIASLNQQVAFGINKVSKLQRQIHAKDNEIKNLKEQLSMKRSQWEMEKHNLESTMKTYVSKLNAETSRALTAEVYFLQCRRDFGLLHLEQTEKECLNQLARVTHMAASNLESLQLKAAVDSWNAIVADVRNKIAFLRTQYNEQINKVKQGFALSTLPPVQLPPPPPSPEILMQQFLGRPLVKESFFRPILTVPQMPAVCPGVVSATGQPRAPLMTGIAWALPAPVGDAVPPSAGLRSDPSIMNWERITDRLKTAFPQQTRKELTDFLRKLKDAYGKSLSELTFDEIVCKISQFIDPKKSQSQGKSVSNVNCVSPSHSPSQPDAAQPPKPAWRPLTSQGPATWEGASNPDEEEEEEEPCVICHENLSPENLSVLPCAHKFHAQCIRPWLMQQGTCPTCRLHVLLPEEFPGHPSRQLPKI
UniProt Q9C005, whole entry, looked up: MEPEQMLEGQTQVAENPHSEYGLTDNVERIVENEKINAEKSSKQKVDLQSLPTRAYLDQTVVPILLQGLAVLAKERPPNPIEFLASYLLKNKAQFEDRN
UniProt O14640: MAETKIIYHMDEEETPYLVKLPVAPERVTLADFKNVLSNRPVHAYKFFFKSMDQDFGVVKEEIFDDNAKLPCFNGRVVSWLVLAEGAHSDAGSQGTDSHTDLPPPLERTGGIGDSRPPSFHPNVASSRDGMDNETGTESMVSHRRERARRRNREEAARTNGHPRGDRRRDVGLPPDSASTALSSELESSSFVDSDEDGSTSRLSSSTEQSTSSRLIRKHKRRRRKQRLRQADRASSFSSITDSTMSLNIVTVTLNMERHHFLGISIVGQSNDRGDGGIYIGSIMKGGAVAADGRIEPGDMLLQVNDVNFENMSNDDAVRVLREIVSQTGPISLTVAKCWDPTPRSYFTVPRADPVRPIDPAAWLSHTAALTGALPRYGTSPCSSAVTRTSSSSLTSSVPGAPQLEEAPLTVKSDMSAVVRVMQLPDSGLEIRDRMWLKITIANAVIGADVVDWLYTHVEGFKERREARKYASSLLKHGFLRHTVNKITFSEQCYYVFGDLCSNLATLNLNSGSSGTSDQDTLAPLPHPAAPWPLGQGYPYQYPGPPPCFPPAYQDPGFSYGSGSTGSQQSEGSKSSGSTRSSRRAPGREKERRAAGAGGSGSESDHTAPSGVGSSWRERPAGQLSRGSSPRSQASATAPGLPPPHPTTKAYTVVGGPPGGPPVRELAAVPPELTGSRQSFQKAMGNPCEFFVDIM
UniProt Q7L9B9: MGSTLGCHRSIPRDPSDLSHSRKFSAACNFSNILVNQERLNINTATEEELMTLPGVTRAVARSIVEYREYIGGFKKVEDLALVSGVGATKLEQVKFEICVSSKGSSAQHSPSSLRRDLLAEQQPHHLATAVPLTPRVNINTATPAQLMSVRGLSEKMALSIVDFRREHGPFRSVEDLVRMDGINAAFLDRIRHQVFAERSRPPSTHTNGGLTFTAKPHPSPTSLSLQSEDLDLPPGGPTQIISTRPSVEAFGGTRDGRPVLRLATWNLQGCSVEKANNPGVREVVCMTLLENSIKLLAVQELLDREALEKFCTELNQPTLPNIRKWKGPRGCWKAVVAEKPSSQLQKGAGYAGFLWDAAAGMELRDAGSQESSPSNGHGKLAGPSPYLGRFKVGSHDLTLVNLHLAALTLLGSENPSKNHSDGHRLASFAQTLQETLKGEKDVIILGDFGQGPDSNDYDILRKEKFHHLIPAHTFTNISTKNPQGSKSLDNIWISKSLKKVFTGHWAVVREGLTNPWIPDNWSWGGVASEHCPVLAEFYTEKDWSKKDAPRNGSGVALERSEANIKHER
UniProt O95147: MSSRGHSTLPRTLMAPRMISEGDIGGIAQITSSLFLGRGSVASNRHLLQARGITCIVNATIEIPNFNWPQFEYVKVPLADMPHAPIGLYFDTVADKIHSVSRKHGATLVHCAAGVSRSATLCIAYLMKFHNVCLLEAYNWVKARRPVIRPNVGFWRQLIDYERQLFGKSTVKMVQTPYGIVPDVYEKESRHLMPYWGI
UniProt Q9P2X0: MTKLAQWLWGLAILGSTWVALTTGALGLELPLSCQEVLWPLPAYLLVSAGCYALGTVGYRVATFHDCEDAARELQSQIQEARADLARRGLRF

How the values were obtained:
Assay in all cases: log2 fold change, soluble protein after heating vs DMSO (PISA); higher = thermal stabilisation; K562 lysate, 10 uM; active = over 0.2 and 3.5 SD of the protein, either way, in both replicates (recomputed)
erlotinib = compound: C#Cc1cccc(Nc2ncnc3cc(OCCOC)c(OCCOC)cc23)c1 [erlotinib]
Summary of the method: (§1)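 Soluble protein was defined as the supernatant remaining after 21,000xg for 90 min, following pooling of heated aliquots and adjustment to 0.5% NP-40 at 4°C. Before that, crude K562 extract at 1 mg/mL protein in PBS pH 7.4 with 1 mM MgCl2 was treated with 10 μM compound for 30 min and heated for 3 min across 48°C-58°C. Quantification used TMTpro 16plex LC-MS/MS with channel sums equalised, and values are log-two fold changes in thermal stability relative to solvent controls from duplicates.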

[1] = compound: C/C(=N\NC(=O)C1=CC(=CC=C1)S(=O)(=O)N2CCOCC2)/C3=C(C=CC(=C3)Cl)O
Summary of the method: as §1

[2] = compound: C1=CC(=CC=C1C2=NC3=C(N2)C=C(C=C3)C(=O)N)OC4=CC=C(C=C4)Cl
Summary of the method: as §1

[3] = compound: C1=CC2=C(C=CC(=C2)/C=C\3/C(=O)NC(=NCC4=CC=CS4)S3)N=C1
Summary of the method: as §1

[4] = compound: C1=CC2=NC=CN=C2C=C1/C=C/3\C(=O)NC(=O)S3
Summary of the method: as §1

[5] = compound: C1=CC=C(C=C1)C2=NC(=C(N2)C3=CC=NC=C3)C4=CC(=C(C=C4)Cl)O
Summary of the method: as §1

[6] = compound: C1=CC=C2C(=C1)C3=NNC4=CC=CC(=C43)C2=O
Summary of the method: as §1

[7] = compound: C1CCN(C1)C(=O)NC2=CC=CC(=C2)NC3=NC=C(C(=N3)NCCC4=CN=CN4)Br
Summary of the method: as §1

[8] = compound: C1CN(CCC1(CC2=CC=C(C=C2)Cl)N)C3=NC=NC4=C3C=CN4
Summary of the method: as §1

IRAK-1-4 Inhibitor I = compound: C1COCCN1CCN2C3=CC=CC=C3N=C2NC(=O)C4=CC(=CC=C4)[N+](=O)[O-] [IRAK-1-4 Inhibitor I]
Summary of the method: as §1

ibrutinib = compound: C=CC(=O)N1CCC[C@@H](n2nc(-c3ccc(Oc4ccccc4)cc3)c3c(N)ncnc32)C1 [ibrutinib]
Summary of the method: as §1

ralimetinib = compound: CC(C)(C)Cn1c(N)nc2ccc(-c3[nH]c(C(C)(C)C)nc3-c3ccc(F)cc3)nc21 [ralimetinib]
Summary of the method: as §1

[9] = compound: CC(C)(O)CC(=O)NCCn1ccc2ncnc(Nc3ccc(Oc4cccc(C(F)(F)F)c4)c(Cl)c3)c21
Summary of the method: as §1

[10] = compound: CC(C)C1=C2N=C(C=C(N2N=C1)NCC3=CC=CC=C3)NCCCCCCN
Summary of the method: as §1

[11] = compound: CC1=C(C2=C(C=C1)C(=O)C3=CC=CC=C3N2CCCN)C
Summary of the method: as §1

[12] = compound: CC1=C(C=C(C=C1)NC(=O)C2=CC(=CC=C2)C(C)(C)C#N)NC3=CC4=C(C=C3)N=CN(C4=O)C
Summary of the method: as §1

[13] = compound: CC1=C(C=C(C=C1)NC(=O)C2=CC(=CC=C2)N(C)C)NC(=O)C3=CC=C(C=C3)O
Summary of the method: as §1

[14] = compound: CC(=O)c1cnc2ccc(-c3cc(Cl)c(O)c(Cl)c3)nc2c1N[C@H]1CC[C@H](CN(C)C)CC1
Summary of the method: as §1

[15] = compound: CC1=CC=C(C=C1)SC2=C3C=C(SC3=CN=C2)C(=O)N
Summary of the method: as §1

[16] = compound: CC1=C(C(CC(=O)N1)C2=CC=C(C=C2)C(F)(F)F)C(=O)NC3=C(C=C4C(=C3)C=NN4)F
Summary of the method: as §1

Measured: log2 fold change

DTX3L (UniProt Q8TDB6)
inactive: erlotinib 0.032 | [1] -0.04 | [2] 0.022 | [3] -0.117 | [4] 0.026 | [5] -0.076 | [6] -0.093 | [7] -0.011 | [8] -0.018 | IRAK-1-4 Inhibitor I 0.033 | ibrutinib 0.087 | ralimetinib 0 | [9] -0.065 | [10] 0.043 | [11] 0.049 | [12] 0.015 | [13] 0.155

EEF1D isoform 3 (UniProt P29692)
inactive: erlotinib -0.013 | [2] -0.413 | [4] 0.137 | ibrutinib 0.081 | [14] 0.051 | [10] 0.005 | [12] -0.073 | [15] 0.009

EFCAB3 (UniProt Q8N7B9)
inactive: erlotinib -0.046 | [2] -0.148 | [14] 0.067 | [10] -0.154 | [12] -0.066 | [15] 0.072

DRAM2 (UniProt Q6UX65)
inactive: [4] -0.092 | ibrutinib 0 | [14] -0.019 | [16] 0.041 | [12] 0.018 | [15] 0.01

DYNC2LI1 (UniProt Q8TCX1)
inactive: [1] 0.01 | [3] 0.036 | [4] 0.097 | [5] 0.036 | [6] 0.006 | IRAK-1-4 Inhibitor I 0.068 | ibrutinib 0.069 | ralimetinib -0.03 | [9] -0.022 | [16] 0.002 | [11] -0.068 | [12] 0.03 | [13] 0.03

DYNC1I1 (UniProt O14576)
inactive: erlotinib -0.047 | [1] 0.392 | [2] 0.075 | [3] 0.251 | [6] -0.029 | [7] -0.014 | [8] -0.054 | [14] -0.006 | [10] 0.052 | [11] -0.071 | [15] 0.127

EID1 (UniProt Q9Y6B2)
inactive: erlotinib 0.089 | [2] -0.172 | [5] 0.096 | [7] 0.064 | [8] 0.091 | IRAK-1-4 Inhibitor I 0.044 | ralimetinib -0.06 | [9] -0.042 | [10] -0.173 | [16] 0.05 | [11] -0.116 | [13] -0.008

EGLN2 (UniProt Q96KS0)
inactive: [1] -0.124 | [3] 0.046 | [5] -0.069 | [6] -0.074 | [7] 0.104 | [8] -0.084 | IRAK-1-4 Inhibitor I -0.121 | ralimetinib -0.065 | [9] 0.055 | [12] -0.115 | [13] 0.162

DUSP22 isoform 2 (UniProt Q9NRW4)
inactive: erlotinib -0.016 | [1] 0.157 | [2] 0.007 | [3] 0.075 | [4] 0.051 | [5] 0.035 | [6] 0.143 | IRAK-1-4 Inhibitor I -0.028 | ibrutinib -0.059 | [14] 0.043 | ralimetinib 0.007 | [9] 0.02 | [10] -0.092 | [16] 0.177 | [11] -0.046 | [13] 0.081 | [15] 0.007

DTL (UniProt Q9NZJ0)
inactive: erlotinib 0.106 | [1] -0.053 | [2] 0.012 | [3] 0.067 | [4] -0.029 | [5] -0.002 | [6] -0.072 | IRAK-1-4 Inhibitor I 0.006 | ibrutinib 0.012 | ralimetinib 0.037 | [9] -0.024 | [10] -0.05 | [16] 0.041 | [11] -0.104 | [12] 0.071 | [13] -0.037

DYNLT3 (UniProt P51808)
inactive: erlotinib -0.029 | [2] -0.162 | [14] -0.225 | [10] 0.054 | [16] -0.006 | [12] -0.101 | [15] -0.196

DSTYK (UniProt Q6XUX3)
inactive: erlotinib -0.162 | [2] -0.124 | [5] -0.246 | IRAK-1-4 Inhibitor I 0.09 | ralimetinib 0.093 | [9] 0.014 | [10] 0.124 | [16] 0.076 | [12] 0.015 | [13] 0.195

DTX2 (UniProt Q86UW9)
inactive: erlotinib 0.05 | [2] 0.055 | [4] -0.008 | ibrutinib 0.003 | [14] 0.063 | [10] 0.018 | [16] -0.018 | [11] -0.091 | [12] -0.06 | [15] 0.167

DRAP1 (UniProt E9PQX9)
inactive: [1] 0.026 | [3] 0.023 | [4] -0.051 | [6] -0.052 | [7] -0.052 | [8] -0.308 | ibrutinib 0.114 | [14] -0.035 | [11] -0.047 | [15] -0.017

DZIP3 (UniProt Q86Y13)
inactive: erlotinib 0.215 | [2] -0.055 | [10] 0.036

Three consecutive records out of the list so far, quoted:
DTX2 (UniProt Q86UW9)
inactive: erlotinib 0.05 | [2] 0.055 | [4] -0.008 | ibrutinib 0.003 | [14] 0.063 | [10] 0.018 | [16] -0.018 | [11] -0.091 | [12] -0.06 | [15] 0.167

DRAP1 (UniProt E9PQX9)
inactive: [1] 0.026 | [3] 0.023 | [4] -0.051 | [6] -0.052 | [7] -0.052 | [8] -0.308 | ibrutinib 0.114 | [14] -0.035 | [11] -0.047 | [15] -0.017

DZIP3 (UniProt Q86Y13)
inactive: erlotinib 0.215 | [2] -0.055 | [10] 0.036

(list continues)

DUSP19 (UniProt Q8WTR2)
inactive: erlotinib 0.08 | [2] 0.213 | [4] -0.028 | [5] 0.019 | IRAK-1-4 Inhibitor I 0.048 | ibrutinib -0.051 | [14] 0.107 | ralimetinib -0.008 | [9] -0.128 | [10] 0.069 | [16] 0.112 | [12] 0.035 | [13] 0.024 | [15] -0.219

E4F1 (UniProt Q66K89)
inactive: erlotinib -0.076 | [1] 0.169 | [2] -0.1 | [3] -0.019 | [4] 0.083 | [5] 0.076 | [6] 0.022 | IRAK-1-4 Inhibitor I 0.064 | ibrutinib 0.249 | [14] -0.001 | ralimetinib 0.132 | [9] -0.081 | [10] -0.176 | [16] 0.038 | [11] -0.049 | [12] 0.114 | [13] -0.052 | [15] -0.024

DPY30 (UniProt Q9C005)
inactive: erlotinib 0.079 | [1] -0.073 | [2] -0.113 | [3] -0.03 | [5] -0.025 | [6] -0.076 | [7] -0.026 | [8] -0.039 | IRAK-1-4 Inhibitor I -0.111 | [14] -0.08 | ralimetinib 0.001 | [9] 0.058 | [10] -0.065 | [16] -0.089 | [11] -0.036 | [12] 0.063 | [13] 0.067 | [15] 0.084

DUSP13 isoform 4 (UniProt Q9UII6)
inactive: erlotinib 0.384 | [2] -0.12 | [10] -0.127

EEF1AKMT1 (UniProt Q8WVE0)
inactive: erlotinib -0.017 | [2] 0.134 | [4] 0.07 | [5] 0.087 | [7] -0.051 | [8] 0.426 | IRAK-1-4 Inhibitor I -0.042 | ibrutinib 0.09 | [14] -0.162 | ralimetinib 0.048 | [9] -0.079 | [10] 0.042 | [16] -0.068 | [11] -0.061 | [12] 0.067 | [13] 0.022 | [15] -0.067

DPF3 isoform 3 (UniProt Q92784)
inactive: [4] -0.142 | ibrutinib -0.022 | [16] -0.137

DYRK1A isoform 2 (UniProt Q13627)
inactive: erlotinib -0.064 | [2] -0.476 | [4] 0.247 | [5] 0.069 | IRAK-1-4 Inhibitor I -0.595 | ibrutinib -0.063 | ralimetinib 0.085 | [9] -0.241 | [10] 0.005 | [12] 0.004 | [13] -0.081

DPYSL3 isoform 2 (UniProt Q14195)
inactive: [7] 0.107 | [8] -0.264 | [12] 0.018

DVL1 (UniProt O14640)
inactive: [1] 0.264 | [3] -0.139 | [6] -0.138 | [7] -0.107 | [8] -0.077

EHHADH (UniProt Q08426)
inactive: erlotinib -0.05 | [2] 0.08 | [4] -0.029 | [5] 0.007 | [7] 0.045 | [8] -0.106 | IRAK-1-4 Inhibitor I -0.09 | ibrutinib 0.059 | [14] -0.023 | ralimetinib 0.021 | [9] -0.084 | [10] -0.016 | [16] -0.003 | [11] 0.128 | [12] -0.027 | [13] 0.031 | [15] 0.008

ECM1 isoform 2 (UniProt Q16610)
inactive: [5] -0.003 | IRAK-1-4 Inhibitor I -0.123 | ralimetinib -0.244 | [9] 0.891 | [13] -0.129

EEPD1 (UniProt Q7L9B9)
inactive: [12] -0.338

DUSP14 (UniProt O95147)
inactive: erlotinib 0.062 | [1] -0.062 | [2] -0.249 | [3] 0.085 | [6] -0.116 | [7] -0.092 | [8] 0.091 | [14] -0.046 | [10] 0.158 | [11] -0.065 | [15] -0.056

DSCAML1 (UniProt Q8TD84)
inactive: [4] -0.031 | [5] 0.064 | IRAK-1-4 Inhibitor I 0.003 | ibrutinib 0.07 | [14] 0.053 | ralimetinib 0.042 | [9] -0.067 | [16] -0.152 | [12] 0.052 | [13] 0.005 | [15] 0.093

DPM3 isoform 2 (UniProt Q9P2X0)
inactive: erlotinib 0.005 | [2] -0.105 | [4] -0.024 | [5] -0.087 | IRAK-1-4 Inhibitor I -0.072 | ibrutinib 0.014 | [14] 0.076 | ralimetinib 0.008 | [9] -0.111 | [10] -0.056 | [16] -0.068 | [12] -0.125 | [13] 0.019 | [15] 0.105

EGFL7 (UniProt Q9UHF1)
inactive: [1] 0.098 | [3] -0.057 | [6] 0.073
